No constants are given. Whether binding was seen depends on the method and setting. In cells and extracts the contact can be indirect. Some entries that bind do so weakly or less than the wild type. Where a sequence is shown, tags or fusion partners need not be part of it. Values belong to the molecule of their own block, whether it stands above or below them.
Tests used:
FLAG-tagged SHC2 = target: T1, FLAG-tagged SHC2 (UniProt P98077); assay: co-IP; LN229 glioblastoma cells co-transfected with an HA-tagged construct of a predicted gene and FLAG-tagged WNT3 or FLAG-tagged SHC2; interactions determined by immunoblotting
T1 sequence: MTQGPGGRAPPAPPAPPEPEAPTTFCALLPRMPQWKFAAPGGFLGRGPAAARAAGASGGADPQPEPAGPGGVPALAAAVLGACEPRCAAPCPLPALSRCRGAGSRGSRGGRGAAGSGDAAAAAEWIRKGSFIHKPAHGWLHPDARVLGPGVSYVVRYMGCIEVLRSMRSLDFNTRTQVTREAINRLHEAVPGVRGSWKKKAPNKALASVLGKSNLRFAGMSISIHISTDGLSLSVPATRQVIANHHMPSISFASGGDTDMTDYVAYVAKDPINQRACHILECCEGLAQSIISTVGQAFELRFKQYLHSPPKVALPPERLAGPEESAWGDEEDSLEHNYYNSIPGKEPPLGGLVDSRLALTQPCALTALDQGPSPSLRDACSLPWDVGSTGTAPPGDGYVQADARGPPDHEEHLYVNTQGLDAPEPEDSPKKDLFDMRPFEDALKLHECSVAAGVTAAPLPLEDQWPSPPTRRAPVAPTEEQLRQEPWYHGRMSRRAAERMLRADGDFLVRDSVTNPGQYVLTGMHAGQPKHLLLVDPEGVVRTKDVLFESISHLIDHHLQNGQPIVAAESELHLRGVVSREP

Chains of the proteins cited; added tags and fusions are not shown. Residues count along the entry.
UniProt P56703, residues 22-355: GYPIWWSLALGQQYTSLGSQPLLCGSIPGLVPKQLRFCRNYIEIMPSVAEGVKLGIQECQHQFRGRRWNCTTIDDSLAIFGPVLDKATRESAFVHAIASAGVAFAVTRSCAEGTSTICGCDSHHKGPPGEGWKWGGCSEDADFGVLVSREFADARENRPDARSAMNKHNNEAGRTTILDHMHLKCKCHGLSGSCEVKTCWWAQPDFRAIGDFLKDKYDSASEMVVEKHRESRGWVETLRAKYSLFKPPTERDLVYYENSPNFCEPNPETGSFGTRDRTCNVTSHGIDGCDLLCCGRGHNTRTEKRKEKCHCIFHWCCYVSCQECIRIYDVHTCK
UniProt P49336: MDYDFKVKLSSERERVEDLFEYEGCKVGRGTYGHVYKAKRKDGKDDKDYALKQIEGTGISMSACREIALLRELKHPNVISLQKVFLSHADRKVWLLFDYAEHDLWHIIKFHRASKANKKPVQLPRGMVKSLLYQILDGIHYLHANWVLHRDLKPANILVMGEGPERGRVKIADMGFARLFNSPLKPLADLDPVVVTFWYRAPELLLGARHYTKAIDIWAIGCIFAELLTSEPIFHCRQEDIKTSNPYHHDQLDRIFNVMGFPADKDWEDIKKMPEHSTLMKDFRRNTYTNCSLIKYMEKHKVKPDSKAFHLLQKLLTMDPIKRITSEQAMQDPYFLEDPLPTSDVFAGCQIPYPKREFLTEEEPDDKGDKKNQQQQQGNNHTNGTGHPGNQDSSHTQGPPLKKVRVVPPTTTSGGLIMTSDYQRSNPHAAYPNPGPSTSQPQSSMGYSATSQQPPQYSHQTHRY
UniProt P35916, residues 25-1363: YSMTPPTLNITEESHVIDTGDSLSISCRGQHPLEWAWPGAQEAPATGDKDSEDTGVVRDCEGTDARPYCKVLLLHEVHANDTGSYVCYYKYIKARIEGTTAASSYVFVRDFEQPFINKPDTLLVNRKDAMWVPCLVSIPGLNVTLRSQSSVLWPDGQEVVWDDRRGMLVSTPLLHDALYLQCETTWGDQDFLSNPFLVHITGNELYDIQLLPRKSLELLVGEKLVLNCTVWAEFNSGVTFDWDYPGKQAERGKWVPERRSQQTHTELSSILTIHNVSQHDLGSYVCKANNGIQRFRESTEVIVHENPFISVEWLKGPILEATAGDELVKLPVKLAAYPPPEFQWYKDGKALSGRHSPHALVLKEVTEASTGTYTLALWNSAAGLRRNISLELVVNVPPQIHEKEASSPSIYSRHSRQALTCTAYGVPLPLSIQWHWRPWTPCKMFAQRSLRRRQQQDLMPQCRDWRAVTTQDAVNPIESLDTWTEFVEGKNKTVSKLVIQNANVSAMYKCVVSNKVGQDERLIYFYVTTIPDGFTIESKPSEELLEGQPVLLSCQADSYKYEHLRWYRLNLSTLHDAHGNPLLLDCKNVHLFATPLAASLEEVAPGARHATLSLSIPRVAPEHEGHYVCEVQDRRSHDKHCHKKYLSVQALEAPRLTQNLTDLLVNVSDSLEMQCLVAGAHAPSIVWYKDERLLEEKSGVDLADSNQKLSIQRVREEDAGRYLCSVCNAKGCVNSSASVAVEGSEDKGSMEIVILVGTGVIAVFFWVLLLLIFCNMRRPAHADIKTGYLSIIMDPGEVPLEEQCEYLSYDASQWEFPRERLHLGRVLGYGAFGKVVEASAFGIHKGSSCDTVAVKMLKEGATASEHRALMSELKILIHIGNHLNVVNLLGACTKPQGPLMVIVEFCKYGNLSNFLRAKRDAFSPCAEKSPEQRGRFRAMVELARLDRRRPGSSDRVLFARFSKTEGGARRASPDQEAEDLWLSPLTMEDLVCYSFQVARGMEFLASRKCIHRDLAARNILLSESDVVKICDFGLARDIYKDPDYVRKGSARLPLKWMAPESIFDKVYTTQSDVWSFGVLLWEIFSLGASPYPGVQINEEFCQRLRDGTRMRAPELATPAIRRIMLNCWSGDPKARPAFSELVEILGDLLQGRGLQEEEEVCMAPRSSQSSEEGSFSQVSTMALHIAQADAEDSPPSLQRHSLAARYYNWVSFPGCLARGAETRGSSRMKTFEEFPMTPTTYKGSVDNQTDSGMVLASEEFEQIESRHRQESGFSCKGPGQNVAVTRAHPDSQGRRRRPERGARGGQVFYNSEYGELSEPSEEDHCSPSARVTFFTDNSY
UniProt Q9BWU1: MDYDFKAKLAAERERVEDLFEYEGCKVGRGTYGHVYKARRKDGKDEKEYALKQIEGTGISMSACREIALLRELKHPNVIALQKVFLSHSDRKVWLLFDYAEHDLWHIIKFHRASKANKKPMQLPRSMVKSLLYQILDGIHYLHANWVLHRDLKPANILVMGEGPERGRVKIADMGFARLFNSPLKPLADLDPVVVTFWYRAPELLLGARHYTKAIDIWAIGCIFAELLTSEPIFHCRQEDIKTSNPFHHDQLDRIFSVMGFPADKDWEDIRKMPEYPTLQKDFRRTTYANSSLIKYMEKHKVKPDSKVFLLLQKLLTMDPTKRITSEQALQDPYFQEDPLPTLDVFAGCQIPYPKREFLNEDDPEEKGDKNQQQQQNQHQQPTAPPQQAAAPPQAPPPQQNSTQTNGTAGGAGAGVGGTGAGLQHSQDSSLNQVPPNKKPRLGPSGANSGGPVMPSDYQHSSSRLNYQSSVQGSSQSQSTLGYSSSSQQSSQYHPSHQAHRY
UniProt P27361: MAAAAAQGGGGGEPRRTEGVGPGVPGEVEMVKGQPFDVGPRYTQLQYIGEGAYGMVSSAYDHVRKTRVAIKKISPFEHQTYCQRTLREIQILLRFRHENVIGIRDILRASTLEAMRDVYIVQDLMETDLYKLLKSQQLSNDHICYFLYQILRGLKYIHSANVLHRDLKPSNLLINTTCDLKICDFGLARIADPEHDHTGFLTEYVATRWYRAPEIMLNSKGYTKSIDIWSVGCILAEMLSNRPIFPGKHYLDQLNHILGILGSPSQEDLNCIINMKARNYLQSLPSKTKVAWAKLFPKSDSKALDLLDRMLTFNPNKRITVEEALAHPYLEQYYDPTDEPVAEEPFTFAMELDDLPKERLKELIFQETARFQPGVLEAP
UniProt Q2I0M5, residues 20-234: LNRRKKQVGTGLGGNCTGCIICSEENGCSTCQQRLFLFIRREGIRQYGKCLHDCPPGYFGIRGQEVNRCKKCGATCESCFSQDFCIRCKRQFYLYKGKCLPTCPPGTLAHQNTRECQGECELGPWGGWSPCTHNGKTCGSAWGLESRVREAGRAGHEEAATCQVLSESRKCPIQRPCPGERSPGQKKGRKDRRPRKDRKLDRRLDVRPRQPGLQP

FLAG-tagged WNT3 = FLAG-tagged WNT3 (UniProt P56703); assay: as above

Molecule: HA-tagged CDK8 (from UniProt P49336 1-464)
binding (FLAG-tagged SHC2): binds
binding (FLAG-tagged WNT3): binds

Molecule: HA-tagged VGFR3 (from UniProt P35916 25-1363)
binding (FLAG-tagged SHC2): binds
binding (FLAG-tagged WNT3): binds

B1: HA-tagged ZN619 (protein, UniProt Q8N2I2 1-560)
chain: MGQPAPYAEGPIQGGDAGELCKCDFLVSISIPQTRSDIPAGARRSSMGPRSLDTCWGRGPERHVHRLECNGVIFTHRNLCLPGGKTKTENEEKTAQLNISKESESHRLIVEGLLMDVPQHPDFKDRLEKSQLHDTGNKTKIGDCTDLTVQDHESSTTEREEIARKLEESSVSTHLITKQGFAKEQVFYKCGECGSYYNPHSDFHLHQRVHTNEKPYTCKECGKTFRYNSKLSRHQKIHTGEKPYSCEECGQAFSQNSHLLQHQKLHGGQRPYECTDCGKTFSYNSKLIRHQRIHTGEKPFKCKECGKAFSCSYDCIIHERIHNGEKPYECKECGKSLSSNSVLIQHQRIHTGEKPYECKECGKAFHRSSVFLQHQRFHTGEQLYKCNECWKTFSCSSRFIVHQRIHNGEKPYECQECGKTFSQKITLVQHQRVHTGEKPYECKECGKAFRWNASFIQHQKWHTRKKLINGTGLSAVKPYCPCAILSPLPPQHTCSALAPPGPPLSSSHAVVLPPSVPFFLLLPSSEKANPSPVQIAHFFQDLAFPGKSSLQSPNPLSHSL
binding (FLAG-tagged SHC2): binds
binding (FLAG-tagged WNT3): no binding

Continued, values first:

binding (FLAG-tagged SHC2): binds
binding (FLAG-tagged WNT3): binds
Molecule: HA-tagged CDK19 (from UniProt Q9BWU1 1-502)

binding (FLAG-tagged SHC2): binds
binding (FLAG-tagged WNT3): binds
Molecule: HA-tagged MAPK3 (from UniProt P27361 1-379)

binding (FLAG-tagged SHC2): binds
binding (FLAG-tagged WNT3): binds
Molecule: HA-tagged RSPO4 (from UniProt Q2I0M5 20-234)

binding (FLAG-tagged SHC2): binds
binding (FLAG-tagged WNT3): binds
B2: HA-tagged LHX1 (protein, UniProt P48742 1-406)
chain: MVHCAGCKRPILDRFLLNVLDRAWHVKCVQCCECKCNLTEKCFSREGKLYCKNDFFRCFGTKCAGCAQGISPSDLVRRARSKVFHLNCFTCMMCNKQLSTGEELYIIDENKFVCKEDYLSNSSVAKENSLHSATTGSDPSLSPDSQDPSQDDAKDSESANVSDKEAGSNENDDQNLGAKRRGPRTTIKAKQLETLKAAFAATPKPTRHIREQLAQETGLNMRVIQVWFQNRRSKERRMKQLSALGARRHAFFRSPRRMRPLVDRLEPGELIPNGPFSFYGDYQSEYYGPGGNYDFFPQGPPSSQAQTPVDLPFVPSSGPSGTPLGGLEHPLPGHHPSSEAQRFTDILAHPPGDSPSPEPSLPGPLHSMSAEVFGPSPPFSSLSVNGGASYGNHLSHPPEMNEAAVW
